Experimental data: PubChem BioAssay AID1224830 (NIAID, 2016)
Purpose: 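Genes whose knock-down alters the TNF-alpha reporter response to LPS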 (primary screen). Cell system: human THP-1 monocytic leukaemia cells, TNF dual-luciferase reporter clone, PMA-differentiated to macrophage-like cells. Reagent: siRNA pool against human genes, 50 nM. Timing: LPS for 4 h, given about 3 days after siRNA transfection. Challenge: bacterial LPS (TLR4 ligand), 10 ng/ml. Detection: 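Ratio of firefly to renilla light, scaled to the plate median and expressed as a robust z-score per replicate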. Scale: TNF reporter robust z-score: higher = stronger TNF reporter response to LPS. Hit rule: 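a well is active when its z-score exceeds 2.8 or falls below -1.5; control wells carry no call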.
In all, the deposit lists about 18,000 reagents; below is a random part of them. About 2,900 of all reagents (16%) were called active. 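Calls are made per well; low scores hint the gene aids the LPS response, high scores that it dampens it.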 Repeated entries: four replicate wells of each siRNA pool.

| target | TNF reporter robust z-score | activity call |
| --- | --- | --- |
| CRYAB (crystallin alpha B) | 0.53 | inactive |
| CRYAB (crystallin alpha B) | -0.03 | inactive |
| CRYAB (crystallin alpha B) | 0.31 | inactive |
| CRYAB (crystallin alpha B) | -0.64 | inactive |
| UCK2 (uridine-cytidine kinase 2) | 0.19 | inactive |
| UCK2 (uridine-cytidine kinase 2) | -1.02 | inactive |
| UCK2 (uridine-cytidine kinase 2) | -0.47 | inactive |
| UCK2 (uridine-cytidine kinase 2) | -0.26 | inactive |
| ZNF513 (zinc finger protein 513) | -0.35 | inactive |
| ZNF513 (zinc finger protein 513) | -0.24 | inactive |
| ZNF513 (zinc finger protein 513) | -1.07 | inactive |
| ZNF513 (zinc finger protein 513) | -1.37 | inactive |
| TASOR (transcription activation suppressor) | 1.3 | inactive |
| TASOR (transcription activation suppressor) | 4.74 | active |
| TASOR (transcription activation suppressor) | 3.41 | active |
| TASOR (transcription activation suppressor) | 3.96 | active |
| ZNF568 (zinc finger protein 568) | -0.83 | inactive |
| ZNF568 (zinc finger protein 568) | -0.76 | inactive |
| ZNF568 (zinc finger protein 568) | -0.39 | inactive |
| ZNF568 (zinc finger protein 568) | -0.22 | inactive |
| ZNF396 (zinc finger protein 396) | 0.94 | inactive |
| ZNF396 (zinc finger protein 396) | 0.16 | inactive |
| ZNF396 (zinc finger protein 396) | 0.79 | inactive |
| ZNF396 (zinc finger protein 396) | -0.63 | inactive |
| ATF4 (activating transcription factor 4) | 1.51 | inactive |
| ATF4 (activating transcription factor 4) | 3.22 | active |
| ATF4 (activating transcription factor 4) | -0.05 | inactive |
| ATF4 (activating transcription factor 4) | 1.83 | inactive |
| TFAP2B (transcription factor AP-2 beta) | -0.5 | inactive |
| TFAP2B (transcription factor AP-2 beta) | 0.09 | inactive |
| TFAP2B (transcription factor AP-2 beta) | -0.24 | inactive |
| TFAP2B (transcription factor AP-2 beta) | 0.12 | inactive |
| CAMSAP3 | – | inactive |
| CAMSAP3 | -0.15 | inactive |
| CAMSAP3 | -0.39 | inactive |
| CAMSAP3 | -0.57 | inactive |
| CAMSAP3 | 0.04 | inactive |
| FGF4 (fibroblast growth factor 4) | 0.18 | inactive |
| FGF4 (fibroblast growth factor 4) | 0 | inactive |
| FGF4 (fibroblast growth factor 4) | -0.05 | inactive |
| FGF4 (fibroblast growth factor 4) | 0.37 | inactive |
| SRPX2 (sushi repeat containing protein X-linked 2) | -0.58 | inactive |
| SRPX2 (sushi repeat containing protein X-linked 2) | 0.55 | inactive |
| SRPX2 (sushi repeat containing protein X-linked 2) | -0.34 | inactive |
| CCDC83 (coiled-coil domain containing 83) | 0.61 | inactive |
| CCDC83 (coiled-coil domain containing 83) | 0.28 | inactive |
| CCDC83 (coiled-coil domain containing 83) | -0.77 | inactive |
| CCDC83 (coiled-coil domain containing 83) | 0.97 | inactive |

Targets above whose target name begins with Z or z (12):
| target | TNF reporter robust z-score | activity call |
| --- | --- | --- |
| ZNF513 (zinc finger protein 513) | -0.35 | inactive |
| ZNF513 (zinc finger protein 513) | -0.24 | inactive |
| ZNF513 (zinc finger protein 513) | -1.07 | inactive |
| ZNF513 (zinc finger protein 513) | -1.37 | inactive |
| ZNF568 (zinc finger protein 568) | -0.83 | inactive |
| ZNF568 (zinc finger protein 568) | -0.76 | inactive |
| ZNF568 (zinc finger protein 568) | -0.39 | inactive |
| ZNF568 (zinc finger protein 568) | -0.22 | inactive |
| ZNF396 (zinc finger protein 396) | 0.94 | inactive |
| ZNF396 (zinc finger protein 396) | 0.16 | inactive |
| ZNF396 (zinc finger protein 396) | 0.79 | inactive |
| ZNF396 (zinc finger protein 396) | -0.63 | inactive |

More entries:
| target | TNF reporter robust z-score | activity call |
| --- | --- | --- |
| TMPRSS2 (transmembrane serine protease 2) | 0.17 | inactive |
| TMPRSS2 (transmembrane serine protease 2) | 1.37 | inactive |
| TMPRSS2 (transmembrane serine protease 2) | 0.51 | inactive |
| TMPRSS2 (transmembrane serine protease 2) | 1.28 | inactive |
| GATAD1 (GATA zinc finger domain containing 1) | -0.85 | inactive |
| GATAD1 (GATA zinc finger domain containing 1) | 0.43 | inactive |
| GATAD1 (GATA zinc finger domain containing 1) | -0.43 | inactive |
| GATAD1 (GATA zinc finger domain containing 1) | -0.69 | inactive |
| PYDC1 (pyrin domain containing 1) | -1.36 | inactive |
| PYDC1 (pyrin domain containing 1) | -1.39 | inactive |
| PYDC1 (pyrin domain containing 1) | -0.91 | inactive |
| PYDC1 (pyrin domain containing 1) | -1.23 | inactive |
| GRIN2C (glutamate ionotropic receptor NMDA type subunit 2C) | 0.09 | inactive |
| GRIN2C (glutamate ionotropic receptor NMDA type subunit 2C) | 0.26 | inactive |
| GRIN2C (glutamate ionotropic receptor NMDA type subunit 2C) | -0.08 | inactive |
| GRIN2C (glutamate ionotropic receptor NMDA type subunit 2C) | -0.17 | inactive |
| ZNF551 (zinc finger protein 551) | -1.29 | inactive |
| ZNF551 (zinc finger protein 551) | -1.87 | active |
| ZNF551 (zinc finger protein 551) | -0.48 | inactive |
| ZNF551 (zinc finger protein 551) | -1.6 | active |
| EDEM2 (ER degradation enhancing alpha-mannosidase like protein 2) | -0.57 | inactive |
| EDEM2 (ER degradation enhancing alpha-mannosidase like protein 2) | -0.76 | inactive |
| EDEM2 (ER degradation enhancing alpha-mannosidase like protein 2) | -0.73 | inactive |
| EDEM2 (ER degradation enhancing alpha-mannosidase like protein 2) | -0.19 | inactive |
| ZFP1 (ZFP1 zinc finger protein) | – | inactive |
| ZFP1 (ZFP1 zinc finger protein) | -1.31 | inactive |
| ZFP1 (ZFP1 zinc finger protein) | -1.18 | inactive |
| ZFP1 (ZFP1 zinc finger protein) | -1.34 | inactive |
| ZFP1 (ZFP1 zinc finger protein) | -1.4 | inactive |
